PubChem BioAssay AID686938, Drosophila RNAi Screening Center – 2013
Test: 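Knock-downs reducing store-operated calcium influx in Drosophila cells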 (primary screen). System: Drosophila S2R+ cells. Knock-down reagent: long dsRNA against Drosophila genes, about 0.25 µg dsRNA per well, roughly 10,000 cells. Timing: 5 days of knock-down before the calcium assay. Treatment: thapsigargin (SERCA pump blocker) to empty calcium stores; entry signal taken 4 min after adding it. Detection: 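Duplicate raw fluo-4 intensities per well from a plate reader, at rest and four minutes after thapsigargin emptied calcium stores; entry-to-rest ratio filled for only some wells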. Scale: calcium entry signal: higher = stronger calcium signal after store depletion; entry to resting ratio: higher = more calcium entry relative to resting level; resting calcium signal: higher = higher resting calcium signal. Active means: 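Hit if the duplicate-averaged plate z-score for entry over resting signal is under −3; wells with weak total dye signal (Fmax z < −2) or more than 5 off-targets removed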. Calls: active = strongly reduced calcium entry; inactive = no strong reduction.
The screen tested about 23,000 reagents; shown is an unselected part of those with a known target gene and a result. Over the whole deposit, 75 (0.33%) are marked active. 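Raw plate signals without normalisation; calls rest on plate z-scores that were not deposited; ratio present for only 364 wells.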 Reagents against one gene are numbered here. A plus sign joins genes that one reagent is predicted to hit. Reagent sequences are not shown. The record does not give: the dose of the treatment.

gene	reagent	calcium entry signal, replicate 1 (fluorescence units)	calcium entry signal, replicate 2 (fluorescence units)	entry to resting ratio	resting calcium signal, replicate 1 (fluorescence units)	resting calcium signal, replicate 2 (fluorescence units)	Call
CG11085 (GeneID 32213)	1	3.16e7	3.90e7		1.51e7	1.88e7	inactive
CG11085 (GeneID 32213)	2	2.91e7	4.37e7		1.43e7	1.99e7	inactive
Sdhaf3 (GeneID 42004)	1	3.12e7	5.19e7		1.69e7	6.12e7	inactive
CG42272 (GeneID 318020)	1	4.41e7	4.98e7		2.52e7	2.20e7	inactive
CG42272 (GeneID 318020)	2	5.09e7	3.04e7		2.67e7	1.68e7	inactive
CG34249 (retired record) (GeneID 5740397)	1	5.11e7	3.89e7		2.24e7	2.03e7	inactive
CR31427 (GeneID 43464)	1	4.95e7	3.44e7		2.39e7	1.43e7	inactive
CG13325 (GeneID 36437)	1	3.58e7	3.90e7		1.66e7	1.84e7	inactive
CG9555 (GeneID 34223)	1	2.24e7	3.22e7		1.07e7	1.42e7	inactive
CG10481 (GeneID 35273)	1	2.59e7	4.51e7		1.34e7	1.89e7	inactive
CG34159 (GeneID 34353)	1	2.34e7	3.06e7		1.35e7	1.47e7	inactive
CG34159 (GeneID 34353)	2	4.48e7	3.40e7		2.13e7	1.64e7	inactive
CG6689 (GeneID 41345)	1	3.91e7	4.74e7		1.67e7	2.07e7	inactive
Sbf (GeneID 41427)	1	3.74e7	3.77e7		1.78e7	1.87e7	inactive
CG1688 (GeneID 36005)	1	3.25e7	3.32e7		1.52e7	1.60e7	inactive
CG1688 (GeneID 36005)	2	4.98e7	3.21e7		2.49e7	1.45e7	inactive
CG18335 (GeneID 36202)	1	2.41e7	4.01e7		1.25e7	1.68e7	inactive
Ranbp16 + Lcch3	1	3.44e7	3.91e7		1.67e7	1.81e7	inactive
nkd (GeneID 44843)	1	2.74e7	4.49e7		1.27e7	1.77e7	inactive
Prip (GeneID 36237)	1	2.66e7	3.12e7		1.17e7	1.56e7	inactive
Theg (GeneID 42585)	1	1.83e7	2.23e7		1.00e7	1.06e7	inactive
CG9577 (GeneID 33016)	1	4.47e7	3.30e7		2.34e7	1.63e7	inactive
CG3626 (GeneID 31377)	1	3.12e7	4.13e7		1.42e7	1.79e7	inactive
CG13309 (GeneID 39012)	1	3.03e7	4.60e7		1.44e7	2.04e7	inactive
Ccdc58 (GeneID 40159)	1	3.57e7	4.19e7		1.70e7	2.77e7	inactive
Akap200 (GeneID 34170)	1	3.98e7			2.13e7		inactive
CG11537 (GeneID 38373)	1	3.34e7	2.35e7		2.19e7	1.01e7	inactive
ase (GeneID 30985)	1	4.37e7	3.70e7	2.4	1.79e7	1.49e7	inactive
Cam (GeneID 36329)	1	2.55e7	2.76e7		1.49e7	1.38e7	inactive
Cam (GeneID 36329)	2	2.62e7	4.45e7		1.76e7	2.69e7	inactive
Peritrophin-15a (GeneID 50433)	1	3.80e7	5.40e7		1.84e7	2.28e7	inactive
Rbcn-3A (GeneID 31557)	1	3.37e7	4.43e7		2.28e7	2.97e7	inactive
CG8915 (GeneID 32715)	1	3.11e7	3.36e7		1.58e7	1.57e7	inactive
D19B (GeneID 38717)	1	3.19e7	5.61e7		1.52e7	2.42e7	inactive
Cpsf160 (GeneID 44250)	1	2.74e7	3.64e7		1.48e7	1.69e7	inactive
CG8206 (GeneID 32516)	1	4.17e7	4.23e7		1.86e7	1.92e7	inactive
Uch-L5R (GeneID 32173)	1	3.86e7	5.58e7		1.94e7	2.69e7	inactive
CG15475 (GeneID 35319)	1	4.78e7	4.77e7		2.09e7	2.00e7	inactive
CG34328 (GeneID 5740378)	1	3.63e7	4.30e7		1.85e7	1.96e7	inactive
mldr (GeneID 31568)	1	2.57e7	3.94e7		1.33e7	1.83e7	inactive

4 consecutive records already listed, for reference:
gene	reagent	calcium entry signal, replicate 1 (fluorescence units)	calcium entry signal, replicate 2 (fluorescence units)	entry to resting ratio	resting calcium signal, replicate 1 (fluorescence units)	resting calcium signal, replicate 2 (fluorescence units)	Call
CG3626 (GeneID 31377)	1	3.12e7	4.13e7		1.42e7	1.79e7	inactive
CG13309 (GeneID 39012)	1	3.03e7	4.60e7		1.44e7	2.04e7	inactive
Ccdc58 (GeneID 40159)	1	3.57e7	4.19e7		1.70e7	2.77e7	inactive
Akap200 (GeneID 34170)	1	3.98e7			2.13e7		inactive
